Source: PubChem BioAssay AID330 (DTP/NCI, 2004)
The list is a part of this screen's results and no random one: it gathers tests that were run many times, whatever their T/C, doses with no T/C, and many T/C values between a quarter and a half above the control. Other doses and runs of a compound stand elsewhere. T/C gives the treated animals as a percentage of the vehicle group. Some doses have a count of surviving animals in place of a T/C: the source holds a T/C of zero for them, seemingly a mark for toxic or unscored doses. Some doses without a T/C left all or most animals alive at the check, yet need not have been tolerated: survival well below the control is almost never listed, so the zero probably covers shortened survival too. Survivors were counted at the toxicity check, usually on the fifth day, unless a day is given; later deaths do not show. Schedule codes are those of the source, taken here to give the interval after Q, in days (D) or hours (H), and the number of doses after X. Some doses were run more than once; the results are listed from low to high. For survival time, this PubChem deposit counts one and a half times the control or more as active, and values a quarter to a half above the control carry no call in these data; other NCI protocols may use other cut-offs. Brackets with × stand for listed records that agree. Some T/C values are followed by the survivors on the day toxicity was checked, most often the fifth; where none is given, no animal had died by that day.

Tested on: P388 leukemia ip, CD2F1 mice, survival T/C
Assay: NCI In Vivo Anticancer Drug Screen. Data for tumor model P388 Leukemia (intraperitoneal) in CD2F1 (CDF1) mice
Settings: T/C endpoint: median survival time, higher T/C = longer survival
[1] = dose: 12.5 mg/kg/injection, schedule: Q01DX009 (ip), vehicle: Klucel (hydroxypropylcellulose) (HPC)
[2] = dose: 25.0 mg/kg/injection, schedule: Q01DX009 (ip), vehicle: Klucel (hydroxypropylcellulose) (HPC)
[3] = dose: 50.0 mg/kg/injection, schedule: Q01DX009 (ip), vehicle: Klucel (hydroxypropylcellulose) (HPC)
[4] = dose: 25.0 mg/kg/injection, schedule: Q01DX009 (ip), vehicle: saline
[5] = dose: 50.0 mg/kg/injection, schedule: Q01DX009 (ip), vehicle: saline
[6] = dose: 100.0 mg/kg/injection, schedule: Q01DX009 (ip), vehicle: saline
[7] = dose: 200.0 mg/kg/injection, schedule: Q01DX009 (ip), vehicle: saline
[8] = dose: 6.25 mg/kg/injection, schedule: Q01DX009 (ip), vehicle: Klucel (hydroxypropylcellulose) (HPC)
[9] = dose: 200.0 mg/kg/injection, schedule: Q01DX005 (ip), vehicle: saline with Tween-80
[10] = dose: 400.0 mg/kg/injection, schedule: Q01DX001 (ip), vehicle: saline with Tween-80

CSc1ncnc2c1ncn2C1OC(CO)C(O)OC1O (stereo unspecified)
T/C (dose: 25.0 mg/kg/injection, schedule: Q01DX009 (ip), vehicle: saline with Tween-80): 127 % of control
T/C (dose: 37.5 mg/kg/injection, schedule: Q01DX009 (ip), vehicle: saline with Tween-80): 136 % of control [5 of 6 alive]
T/C (dose: 100.0 mg/kg/injection, schedule: Q04DX003 (ip), vehicle: saline with Tween-80): 127 % of control
survivor count (dose: 150.0 mg/kg/injection, schedule: Q04DX003 (ip), vehicle: saline with Tween-80): 6 of 6
survivor count (dose: 200.0 mg/kg/injection, schedule: Q04DX003 (ip), vehicle: saline with Tween-80): 4 of 6

C/C(=N\NC(=S)SCc1ccccc1)c1ccccn1
T/C [1]: 126 [5 of 6 alive] and 128 % of control
survivor count [2]: 6 of 6
survivor count [3]: 6 of 6
survivor count (dose: 100.0 mg/kg/injection, schedule: Q01DX009 (ip), vehicle: Klucel (hydroxypropylcellulose) (HPC)): 6 of 6
survivor count (dose: 200.0 mg/kg/injection, schedule: Q01DX009 (ip), vehicle: Klucel (hydroxypropylcellulose) (HPC)): 0 of 6

CCC[CH2][Sn]([CH2]CCC)([CH2]CCC)[CH2]CC[N+](C)(C)C.CS(=O)(=O)[O-]
survivor count (dose: 6.25 mg/kg/injection, schedule: Q01DX009 (ip), vehicle: saline): 2 of 6
survivor count (dose: 12.5 mg/kg/injection, schedule: Q01DX009 (ip), vehicle: saline): 2 of 6
survivor count [4]: 0 of 6
survivor count [5]: 0 of 6
survivor count [6]: 0 of 6
survivor count [7]: 0 of 6

CCO/C=C1\SC(=S)N(c2cccc(OC)c2)C1=O
T/C (dose: 400.0 mg/kg/injection, schedule: Q01DX009 (ip), vehicle: saline with Tween-80): 127 % of control
T/C (dose: 400.0 mg/kg/injection, schedule: Q04DX003 (ip), vehicle: saline with Tween-80): 136 % of control

Oc1cccc(NCNC2Nc3ccccc3N2)c1
survivor count (dose: 60.0 mg/kg/injection, schedule: Q01DX005 (ip), vehicle: saline with Tween-80): 6 of 6
survivor count (dose: 120.0 mg/kg/injection, schedule: Q01DX005 (ip), vehicle: saline with Tween-80): 6 of 6
survivor count (dose: 240.0 mg/kg/injection, schedule: Q01DX005 (ip), vehicle: saline with Tween-80): 6 of 6

C[CH2][Pb]([CH2]C)([CH2]C)[N]1C(=O)c2ccccc2C1=O
survivor count [8]: 6 of 6
survivor count [1]: 0 of 6
survivor count [2]: 0 of 6

CC1CCCC(C2CC3CCCCC3C(N)[N-]2)[N-]1.CC1CCCC(C2CC3CCCCC3C(N)[N-]2)[N-]1.O=[N+]([O-])O.[Cu+] (stereo unspecified)
survivor count (dose: 400.0 mg/kg/injection, schedule: Q04DX002 (ip), vehicle: suspension in saline): 1 of 6

N#Cc1[nH]nc2nc[nH]c(=O)c12
survivor count (dose: 400.0 mg/kg/injection, schedule: Q04DX002 (ip), vehicle: water): 1 of 6

CCCCCC(CN(C)C)C(=O)/C=C/c1ccc(F)cc1 (stereo unspecified)
survivor count [9]: 0 of 6

C1CNC2NCCNC2N1 (stereo unspecified)
T/C [5]: 136 % of control
T/C [6]: 131 % of control [5 of 6 alive]
survivor count [7]: 4 of 6

Cc1cc(C)c(C#N)c(OCC2CCCO2)n1 (stereo unspecified)
survivor count [9]: 5 of 5

CN(C(=O)c1cc2c(cc1Br)OCO2)c1ccccc1
survivor count (dose: 200.0 mg/kg/injection, schedule: Q01DX009 (ip), vehicle: other): 2 of 6
survivor count (dose: 400.0 mg/kg/injection, schedule: Q01DX009 (ip), vehicle: other): 0 of 6

C#CCNC(=S)N/N=C(\C)c1ccccn1
survivor count (dose: 50.0 mg/kg/injection, schedule: Q01DX009 (ip), vehicle: saline with Tween-80): 0 of 6
survivor count (dose: 100.0 mg/kg/injection, schedule: Q01DX009 (ip), vehicle: saline with Tween-80): 0 of 6
survivor count (dose: 200.0 mg/kg/injection, schedule: Q01DX009 (ip), vehicle: saline with Tween-80): 0 of 6

COc1cc2cc[n+]3c(C)c4cc5c(cc4cc3c2cc1OC)OCO5 (tested in a mixture with another compound)
T/C (dose: 1.33 mg/kg/injection, schedule: Q01DX009 (ip), vehicle: saline): 133 % of control
T/C (dose: 2.0 mg/kg/injection, schedule: Q01DX009 (ip), vehicle: saline): 135 % of control
T/C (dose: 3.0 mg/kg/injection, schedule: Q01DX009 (ip), vehicle: saline): 144 % of control
T/C (dose: 5.56 mg/kg/injection, schedule: Q01DX009 (ip), vehicle: saline): 143 % of control

NCCCCS(=O)(=O)Nc1ccc(Nc2c3ccccc3nc3cc([N+](=O)[O-])ccc23)cc1
T/C (dose: 33.0 mg/kg/injection, schedule: Q04DX003 (ip), vehicle: saline): 140 % of control
survivor count (dose: 300.0 mg/kg/injection, schedule: Q04DX003 (ip), vehicle: water): 2 of 8

[Cl][Sn]([c]1cccc2ccccc12)[c]1cccc2ccccc12
T/C (dose: 3.12 mg/kg/injection, schedule: Q01DX005 (ip), vehicle: Klucel (hydroxypropylcellulose) (HPC)): 133 % of control
T/C (dose: 6.25 mg/kg/injection, schedule: Q01DX005 (ip), vehicle: Klucel (hydroxypropylcellulose) (HPC)): 145 % of control
T/C (dose: 12.5 mg/kg/injection, schedule: Q01DX005 (ip), vehicle: Klucel (hydroxypropylcellulose) (HPC)): 139 % of control
survivor count (dose: 50.0 mg/kg/injection, schedule: Q01DX005 (ip), vehicle: Klucel (hydroxypropylcellulose) (HPC)): 0 of 6
survivor count (dose: 100.0 mg/kg/injection, schedule: Q01DX005 (ip), vehicle: Klucel (hydroxypropylcellulose) (HPC)): 0 of 6
survivor count (dose: 200.0 mg/kg/injection, schedule: Q01DX005 (ip), vehicle: Klucel (hydroxypropylcellulose) (HPC)): 0 of 6

c1ccc2c3cc(cc2c1)OCCOCCOCCOc1ccc2ccccc2c1-c1c(ccc2ccccc12)OCCOCCOc1ccc2ccccc2c1-3
survivor count [10]: 6 of 6

N#CN=[N+]([O-])c1cccc(Br)c1
survivor count (dose: 100.0 mg/kg/injection, schedule: Q04DX003 (ip), vehicle: Klucel (hydroxypropylcellulose) (HPC)): 3 of 6
survivor count (dose: 200.0 mg/kg/injection, schedule: Q04DX003 (ip), vehicle: Klucel (hydroxypropylcellulose) (HPC)): 0 of 6

C/C=C(\C)C(=O)O[C@@H]1[C@H]2C(C)=CC(=O)[C@@H](O)[C@]2(C)[C@H]2[C@@]3(O)OC[C@@]24[C@@H]1OC(=O)C[C@H]4[C@@H](C)[C@H]3O
T/C (dose: 0.08 mg/kg/injection, schedule: Q01DX009 (ip), vehicle: other): 134 % of control
T/C (dose: 0.15 mg/kg/injection, schedule: Q01DX009 (ip), vehicle: other): 134 % of control
T/C (dose: 0.3 mg/kg/injection, schedule: Q01DX009 (ip), vehicle: other): 142 % of control
T/C (dose: 0.5 mg/kg/injection, schedule: Q01DX009 (ip), vehicle: other): 130 % of control
T/C (dose: 1.0 mg/kg/injection, schedule: Q01DX009 (ip), vehicle: other): 130 % of control
T/C (dose: 1.2 mg/kg/injection, schedule: Q01DX009 (ip), vehicle: other): 137 % of control

CC[N+](C)(CC)CCNC(=O)Nc1ccc(-c2ccc(NC(=O)NCC[N+](C)(CC)CC)c(OC)c2)cc1OC
survivor count [4]: 0 of 6
survivor count [5]: 6 of 6
survivor count [6]: 1 of 6
survivor count [7]: 0 of 6

ClCCN(CCCl)CC(Cl)COc1cccc2ccccc12 (stereo unspecified)
T/C (dose: 5.0 mg/kg/injection, schedule: Q01DX009 (ip), vehicle: saline): 94, 96, 120, 127 % of control
T/C (dose: 10.0 mg/kg/injection, schedule: Q01DX009 (ip), vehicle: saline): 119, 127, 132 % of control (2×)
T/C (dose: 20.0 mg/kg/injection, schedule: Q01DX009 (ip), vehicle: saline): 134 and 141 % of control
T/C (dose: 40.0 mg/kg/injection, schedule: Q01DX009 (ip), vehicle: saline): 133 and 139 % of control

NC(CS)=NCC1C2CC3CC(C2)CC1C3 (stereo unspecified)
survivor count [8]: 6 of 6
survivor count [1]: 2 of 6 and 4 of 6
survivor count [2]: 2 of 6
survivor count [3]: 0 of 6

O=C(O)c1ccccc1-c1nc2ccccc2[nH]1
survivor count (dose: 200.0 mg/kg/injection, schedule: Q01DX001 (ip), vehicle: saline with Tween-80): 1 of 6
survivor count [10]: 0 of 6
